Results are given in words; binding and its absence hold for the method and conditions named. Binding seen in cells or lysates may run through a third protein. Here binding means that the protein was enriched with, or labelled near, the bait; the list need not be complete. Sequences can lack the tags named with a protein.
Target: T1, Fkh2-6Myc (C. albicans) (UniProt Q5A7S7)
T1 sequence: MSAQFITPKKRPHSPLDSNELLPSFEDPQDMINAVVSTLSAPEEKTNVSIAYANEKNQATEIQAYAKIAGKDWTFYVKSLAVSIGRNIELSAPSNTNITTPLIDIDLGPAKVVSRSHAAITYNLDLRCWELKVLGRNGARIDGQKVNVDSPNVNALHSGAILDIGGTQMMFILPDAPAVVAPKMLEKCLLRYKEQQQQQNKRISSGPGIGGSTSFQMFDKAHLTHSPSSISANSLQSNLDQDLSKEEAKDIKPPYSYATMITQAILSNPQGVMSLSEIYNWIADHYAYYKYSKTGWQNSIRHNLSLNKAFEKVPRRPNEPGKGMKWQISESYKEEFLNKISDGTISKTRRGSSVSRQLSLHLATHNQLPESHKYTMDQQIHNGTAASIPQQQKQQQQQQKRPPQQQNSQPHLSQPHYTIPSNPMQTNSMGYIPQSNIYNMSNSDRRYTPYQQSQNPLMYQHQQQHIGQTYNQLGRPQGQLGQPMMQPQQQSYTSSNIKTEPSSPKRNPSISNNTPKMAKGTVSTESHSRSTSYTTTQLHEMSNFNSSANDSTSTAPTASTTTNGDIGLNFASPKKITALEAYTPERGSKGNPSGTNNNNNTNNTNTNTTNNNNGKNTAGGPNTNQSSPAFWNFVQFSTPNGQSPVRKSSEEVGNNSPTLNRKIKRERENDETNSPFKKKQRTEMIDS
Experiment: affinity purification with mass spectrometry; Fkh2-6Myc immuno-purified from approximately 1 g of total cell lysate (early upon hyphal induction) with Ez-view agarose, washed four times with cold lysis buffer, SDS-PAGE, Coomassie-stained bands identified by MS

B1: Pob3 (Candida orthologue of ScPob3) (protein, UniProt Q5ALL8 1-538)
chain: MVNTDFEKIYLNQSRAGGRMRIAESGLGWKASASSGSTSQPFLLPREEILIASWSRGSKGYELRVQTKNKGVVSLDGFDHDDFTQLKQELTRNFHINLEHREHSLRGWNWGKTDLARNELIFNVNNKPAFEIPYSDISNSNLTGKNEVALEFNLDNNKNGDEIVEMRFYVPGTIENETTIVKNETNGDVIEEAVVNETSAAQQFYEQLKDKADIGQVAGEAIVSFSDVLFLTPRGRYDIDMYPSSLRLRGKTYDYKIQYEQIERIFSLPKPDETHHLIVLQIDPPLRQGQTRYPFLVLQFVKDEETELELNVSDEDFEKKYKDRLKKTYDAPTNVVMSHCLRGLTERKLITPGAFQSRYLQAGVPCSVKASEGYLFPLDRCFLFVTKPTLYIPYSEISSVVMSRTGGGVSASRTFDLEVNVIGSNQPHVFSNIDREEQEFIESFCKEKGVKVKNEEKIAKARLAKALEQEANDDDDEDADMGSAGDEDEDEDVDFQSGSDSDVAEEFDSDAAPSSDDDEEMADSKETDDRPPKKKAKN
Question: Which binding does the source give for B1 here?
Answer: Its binding is “binds”.

— article PMC4305328
